In the supplement of paper PMC10849652:
The other results are listed elsewhere or left out.

Amino acid sequences for entries named in this document (tags omitted). A change or cut given only in a name is not applied to a line headed by its entry.
UniProt P52895: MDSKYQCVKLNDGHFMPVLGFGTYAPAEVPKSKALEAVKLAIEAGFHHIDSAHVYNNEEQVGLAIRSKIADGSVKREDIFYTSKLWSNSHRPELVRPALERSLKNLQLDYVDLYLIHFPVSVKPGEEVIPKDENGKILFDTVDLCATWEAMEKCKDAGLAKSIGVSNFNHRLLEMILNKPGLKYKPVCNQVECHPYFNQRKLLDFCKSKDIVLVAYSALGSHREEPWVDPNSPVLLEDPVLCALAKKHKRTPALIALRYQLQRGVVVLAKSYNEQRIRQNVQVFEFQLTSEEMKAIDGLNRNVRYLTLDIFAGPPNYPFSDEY
UniProt O43488: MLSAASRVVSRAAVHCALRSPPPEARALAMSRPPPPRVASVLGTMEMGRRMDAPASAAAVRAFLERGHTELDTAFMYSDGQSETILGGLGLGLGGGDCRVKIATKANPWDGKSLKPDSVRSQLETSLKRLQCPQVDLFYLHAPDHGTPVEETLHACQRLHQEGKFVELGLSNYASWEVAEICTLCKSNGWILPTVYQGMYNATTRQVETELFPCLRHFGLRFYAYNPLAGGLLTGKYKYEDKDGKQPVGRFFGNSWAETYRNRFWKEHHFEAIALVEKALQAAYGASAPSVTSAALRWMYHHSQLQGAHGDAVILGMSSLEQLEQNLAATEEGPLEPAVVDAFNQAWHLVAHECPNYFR
UniProt Q9UHX3: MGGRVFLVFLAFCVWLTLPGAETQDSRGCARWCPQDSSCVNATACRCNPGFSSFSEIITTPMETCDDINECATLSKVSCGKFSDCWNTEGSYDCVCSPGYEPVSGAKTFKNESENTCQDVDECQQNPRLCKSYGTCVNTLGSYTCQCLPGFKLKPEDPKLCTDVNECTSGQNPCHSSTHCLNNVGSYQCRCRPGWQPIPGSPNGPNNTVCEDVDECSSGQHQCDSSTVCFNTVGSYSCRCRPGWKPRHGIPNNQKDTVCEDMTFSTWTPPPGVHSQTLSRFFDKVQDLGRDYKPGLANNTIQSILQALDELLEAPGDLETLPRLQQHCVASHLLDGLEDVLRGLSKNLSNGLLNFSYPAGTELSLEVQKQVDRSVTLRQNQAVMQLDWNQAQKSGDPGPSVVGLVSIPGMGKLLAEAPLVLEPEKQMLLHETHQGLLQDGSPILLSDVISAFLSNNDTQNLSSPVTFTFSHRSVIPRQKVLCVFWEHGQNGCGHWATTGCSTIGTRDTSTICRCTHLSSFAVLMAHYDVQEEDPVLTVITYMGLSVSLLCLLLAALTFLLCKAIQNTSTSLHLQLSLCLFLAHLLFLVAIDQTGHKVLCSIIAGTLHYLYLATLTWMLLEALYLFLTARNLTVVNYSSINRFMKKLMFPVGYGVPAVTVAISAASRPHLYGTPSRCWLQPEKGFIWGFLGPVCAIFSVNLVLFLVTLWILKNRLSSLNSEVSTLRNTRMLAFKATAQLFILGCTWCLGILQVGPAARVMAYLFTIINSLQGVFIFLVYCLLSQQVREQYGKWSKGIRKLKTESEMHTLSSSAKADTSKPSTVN
UniProt Q7Z591: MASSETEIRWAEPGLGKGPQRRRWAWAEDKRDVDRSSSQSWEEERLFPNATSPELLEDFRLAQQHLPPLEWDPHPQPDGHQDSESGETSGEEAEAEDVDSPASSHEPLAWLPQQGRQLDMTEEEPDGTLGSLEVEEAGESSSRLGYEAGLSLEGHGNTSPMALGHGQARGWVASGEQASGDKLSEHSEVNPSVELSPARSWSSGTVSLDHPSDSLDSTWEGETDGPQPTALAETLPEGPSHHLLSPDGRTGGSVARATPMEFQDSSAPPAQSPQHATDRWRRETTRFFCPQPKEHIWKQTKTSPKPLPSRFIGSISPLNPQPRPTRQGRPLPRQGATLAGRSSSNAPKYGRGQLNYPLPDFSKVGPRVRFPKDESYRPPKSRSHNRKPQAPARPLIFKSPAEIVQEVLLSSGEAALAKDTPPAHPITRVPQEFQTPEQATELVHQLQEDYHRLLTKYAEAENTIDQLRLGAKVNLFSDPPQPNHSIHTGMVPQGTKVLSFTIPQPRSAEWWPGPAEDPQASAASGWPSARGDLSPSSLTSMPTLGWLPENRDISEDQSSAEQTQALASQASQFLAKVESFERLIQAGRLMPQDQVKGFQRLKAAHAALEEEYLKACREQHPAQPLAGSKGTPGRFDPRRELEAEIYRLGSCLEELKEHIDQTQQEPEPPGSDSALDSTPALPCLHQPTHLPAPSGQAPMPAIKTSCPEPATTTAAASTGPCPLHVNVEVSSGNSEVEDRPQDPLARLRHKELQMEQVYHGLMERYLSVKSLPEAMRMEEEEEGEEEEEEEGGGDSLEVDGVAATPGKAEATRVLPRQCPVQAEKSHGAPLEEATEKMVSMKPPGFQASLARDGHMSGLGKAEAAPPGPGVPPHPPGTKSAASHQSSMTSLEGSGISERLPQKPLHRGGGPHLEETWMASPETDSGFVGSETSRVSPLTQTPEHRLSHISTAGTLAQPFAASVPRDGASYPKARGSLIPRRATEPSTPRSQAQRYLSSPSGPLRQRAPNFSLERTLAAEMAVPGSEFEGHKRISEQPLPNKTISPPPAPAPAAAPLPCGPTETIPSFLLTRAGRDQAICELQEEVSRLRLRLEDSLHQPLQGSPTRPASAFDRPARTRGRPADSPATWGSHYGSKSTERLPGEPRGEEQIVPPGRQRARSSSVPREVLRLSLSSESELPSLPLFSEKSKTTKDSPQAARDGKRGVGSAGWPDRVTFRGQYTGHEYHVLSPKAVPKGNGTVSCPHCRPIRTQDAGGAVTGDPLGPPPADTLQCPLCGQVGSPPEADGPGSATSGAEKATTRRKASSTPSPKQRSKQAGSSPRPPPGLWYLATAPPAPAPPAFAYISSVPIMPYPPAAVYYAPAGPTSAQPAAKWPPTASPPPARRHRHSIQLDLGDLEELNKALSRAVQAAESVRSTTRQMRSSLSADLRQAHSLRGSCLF
UniProt O00154: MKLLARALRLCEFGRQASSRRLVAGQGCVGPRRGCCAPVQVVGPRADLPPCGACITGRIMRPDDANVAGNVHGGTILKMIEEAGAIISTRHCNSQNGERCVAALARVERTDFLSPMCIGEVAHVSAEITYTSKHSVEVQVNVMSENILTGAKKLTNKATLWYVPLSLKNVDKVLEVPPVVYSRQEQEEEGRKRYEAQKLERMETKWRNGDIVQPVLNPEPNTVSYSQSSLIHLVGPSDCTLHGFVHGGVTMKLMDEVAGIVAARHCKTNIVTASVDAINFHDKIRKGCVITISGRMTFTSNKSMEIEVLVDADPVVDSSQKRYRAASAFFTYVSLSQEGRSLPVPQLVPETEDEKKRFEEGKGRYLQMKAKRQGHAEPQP
UniProt O95573: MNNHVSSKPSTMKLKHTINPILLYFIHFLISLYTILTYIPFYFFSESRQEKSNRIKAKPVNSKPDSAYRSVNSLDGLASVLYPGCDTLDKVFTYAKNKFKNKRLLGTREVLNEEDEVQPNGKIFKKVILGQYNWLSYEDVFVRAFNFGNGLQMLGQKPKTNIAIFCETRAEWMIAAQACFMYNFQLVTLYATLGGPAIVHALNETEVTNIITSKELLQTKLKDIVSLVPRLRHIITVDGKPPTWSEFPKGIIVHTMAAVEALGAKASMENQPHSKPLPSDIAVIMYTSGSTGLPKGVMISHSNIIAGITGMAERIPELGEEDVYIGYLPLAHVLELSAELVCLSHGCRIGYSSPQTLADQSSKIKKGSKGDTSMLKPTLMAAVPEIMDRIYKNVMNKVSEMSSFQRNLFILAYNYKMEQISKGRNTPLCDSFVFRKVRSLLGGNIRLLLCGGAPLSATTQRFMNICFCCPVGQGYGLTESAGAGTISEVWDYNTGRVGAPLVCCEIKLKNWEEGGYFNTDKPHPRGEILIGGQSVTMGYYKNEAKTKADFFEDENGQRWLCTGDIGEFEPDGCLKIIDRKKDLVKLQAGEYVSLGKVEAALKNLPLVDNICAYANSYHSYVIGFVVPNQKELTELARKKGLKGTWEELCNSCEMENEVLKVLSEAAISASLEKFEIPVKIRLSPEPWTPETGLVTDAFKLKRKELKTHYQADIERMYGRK
UniProt P52594: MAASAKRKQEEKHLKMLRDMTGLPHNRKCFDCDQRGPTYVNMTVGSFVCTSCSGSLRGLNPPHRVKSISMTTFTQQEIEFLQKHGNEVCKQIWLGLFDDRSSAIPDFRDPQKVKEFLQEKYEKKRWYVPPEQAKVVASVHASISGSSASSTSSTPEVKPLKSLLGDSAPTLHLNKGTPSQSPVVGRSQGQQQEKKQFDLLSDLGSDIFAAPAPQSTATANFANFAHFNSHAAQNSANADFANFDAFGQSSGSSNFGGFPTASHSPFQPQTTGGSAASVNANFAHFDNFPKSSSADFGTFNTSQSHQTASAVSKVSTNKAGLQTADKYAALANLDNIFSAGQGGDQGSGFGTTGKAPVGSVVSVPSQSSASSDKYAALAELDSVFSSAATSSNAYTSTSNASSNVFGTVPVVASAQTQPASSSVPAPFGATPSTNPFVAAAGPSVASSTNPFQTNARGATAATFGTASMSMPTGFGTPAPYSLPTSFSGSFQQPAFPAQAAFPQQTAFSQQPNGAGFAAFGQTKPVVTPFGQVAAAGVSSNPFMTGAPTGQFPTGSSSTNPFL
UniProt Q9UIJ7: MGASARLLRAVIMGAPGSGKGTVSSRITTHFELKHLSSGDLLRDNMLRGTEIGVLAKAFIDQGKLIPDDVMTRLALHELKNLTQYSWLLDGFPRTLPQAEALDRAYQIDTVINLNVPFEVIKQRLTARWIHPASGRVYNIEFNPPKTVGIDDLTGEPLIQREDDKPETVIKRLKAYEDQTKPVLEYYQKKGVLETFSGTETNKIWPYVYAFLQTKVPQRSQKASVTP
UniProt Q9UEY8: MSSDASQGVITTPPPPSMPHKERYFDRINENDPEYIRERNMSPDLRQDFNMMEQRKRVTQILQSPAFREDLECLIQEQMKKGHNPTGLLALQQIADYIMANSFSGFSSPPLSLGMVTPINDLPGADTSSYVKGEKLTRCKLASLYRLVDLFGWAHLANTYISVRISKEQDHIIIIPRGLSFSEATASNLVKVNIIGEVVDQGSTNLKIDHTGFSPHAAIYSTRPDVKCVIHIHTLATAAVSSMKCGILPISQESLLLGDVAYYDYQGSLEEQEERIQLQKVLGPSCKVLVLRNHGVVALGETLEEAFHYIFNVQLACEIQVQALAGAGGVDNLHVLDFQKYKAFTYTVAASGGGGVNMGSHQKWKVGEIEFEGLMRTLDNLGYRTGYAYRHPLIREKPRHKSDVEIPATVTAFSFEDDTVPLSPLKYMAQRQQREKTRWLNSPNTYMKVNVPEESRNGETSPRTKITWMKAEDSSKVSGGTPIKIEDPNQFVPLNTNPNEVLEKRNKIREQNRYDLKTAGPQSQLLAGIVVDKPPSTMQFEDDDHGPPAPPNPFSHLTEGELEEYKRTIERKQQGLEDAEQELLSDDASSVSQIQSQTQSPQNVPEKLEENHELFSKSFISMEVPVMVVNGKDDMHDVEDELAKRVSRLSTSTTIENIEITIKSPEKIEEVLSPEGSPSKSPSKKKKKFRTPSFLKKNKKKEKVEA
UniProt P14550: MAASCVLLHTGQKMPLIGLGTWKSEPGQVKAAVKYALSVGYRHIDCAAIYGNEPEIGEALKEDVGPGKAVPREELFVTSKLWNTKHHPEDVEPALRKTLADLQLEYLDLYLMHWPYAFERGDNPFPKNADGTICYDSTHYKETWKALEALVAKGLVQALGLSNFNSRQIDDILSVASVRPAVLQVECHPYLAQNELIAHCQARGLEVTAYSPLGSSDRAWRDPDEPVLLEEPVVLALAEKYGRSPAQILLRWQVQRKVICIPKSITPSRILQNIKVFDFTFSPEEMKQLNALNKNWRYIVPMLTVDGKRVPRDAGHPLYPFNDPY
UniProt P42330: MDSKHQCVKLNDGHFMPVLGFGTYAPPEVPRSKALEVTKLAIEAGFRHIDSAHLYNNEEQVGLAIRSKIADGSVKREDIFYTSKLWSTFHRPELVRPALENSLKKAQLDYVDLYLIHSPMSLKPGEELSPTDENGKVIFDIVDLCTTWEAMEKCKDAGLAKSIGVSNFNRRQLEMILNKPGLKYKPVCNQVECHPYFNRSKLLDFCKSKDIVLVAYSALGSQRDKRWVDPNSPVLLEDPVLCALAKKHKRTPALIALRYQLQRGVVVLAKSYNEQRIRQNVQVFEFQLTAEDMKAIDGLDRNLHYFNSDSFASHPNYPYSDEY

Columns and labels:
Assay in all cases: log2 fold change, soluble protein after heating vs DMSO (PISA); higher = thermal stabilisation; K562 lysate, 10 uM; active = over 0.2 and 3.5 SD of the protein, either way, in both replicates (recomputed)
[1] = compound: CS(=O)(=O)CCNCc1ccc(-c2ccc3ncnc(Nc4ccc(OCc5cccc(F)c5)c(Cl)c4)c3c2)o1 [lapatinib]
In short: (§1)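 Pellets of K562 cells were dounce-homogenised in PBS pH 7.4 with 1 mM MgCl2, and the crude extract was held at 1 mg/mL protein for a 30 min treatment with 10 μM compound. Aliquots were heated for 3 min over 48°C-58°C and pooled before NP-40 was added to 0.5% at 4°C. The supernatant from 21,000xg for 90 min was quantified by TMTpro 16plex LC-MS/MS with channel sums equalised. Values are reported from duplicates as log-two fold change in thermal stability relative to solvent controls.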

[2] = compound: CS(=O)(=O)N1CCN(Cc2cc3nc(-c4cccc5[nH]ncc45)nc(N4CCOCC4)c3s2)CC1 [pictilisib]
In short: as §1

[3] = compound: C[C@@H](Oc1cc(-c2cnn(C3CCNCC3)c2)cnc1N)c1c(Cl)ccc(F)c1Cl [crizotinib]
In short: as §1

[4] = compound: C[C@H](C1=CC=C(C=C1)C(=O)NC2=C3C=CNC3=NC=C2)N
In short: as §1

[5] = compound: C[C@H](Nc1ncnc2nc[nH]c12)c1cc2cccc(Cl)c2c(=O)n1-c1ccccc1 [duvelisib]
In short: as §1

[6] = compound: Cc1cc(Nc2cc(CN3CCOCC3)c3nc(C)c(Cc4ccc(Cl)cc4F)n3n2)n[nH]1 [gandotinib]
In short: as §1

[7] = compound: Cc1cc(Nc2cc(N3CCN(C)CC3)nc(Sc3ccc(NC(=O)C4CC4)cc3)n2)n[nH]1 [tozasertib]
In short: as §1

[8] = compound: Cc1ccc(-n2nc(C(C)(C)C)cc2NC(=O)Nc2ccc(OCCN3CCOCC3)c3ccccc23)cc1 [doramapimod]
In short: as §1

[9] = compound: Cc1ccc(NC(=O)c2ccc(CN3CC[C@H](N(C)C)C3)c(C(F)(F)F)c2)cc1Nc1nccc(-c2cncnc2)n1 [bafetinib]
In short: as §1

[10] = compound: Cc1cccc(CC(=O)N2CCc3c2ccc(-c2cn(C)c4ncnc(N)c24)c3F)n1
In short: as §1

[11] = compound: Cc1cn(-c2cc(NC(=O)c3ccc(C)c(Nc4nccc(-c5cccnc5)n4)c3)cc(C(F)(F)F)c2)cn1 [nilotinib]
In short: as §1

[12] = compound: Cc1nc(Nc2n[nH]c3c2CN(C(=O)N[C@H](CN(C)C)c2ccccc2)C3(C)C)c2sccc2n1
In short: as §1

[13] = compound: Cc1nc(Nc2ncc(C(=O)Nc3c(C)cccc3Cl)s2)cc(N2CCN(CCO)CC2)n1 [dasatinib]
In short: as §1

[14] = compound: Cc1ncc(-c2ccnc(Nc3ccc(S(C)(=O)=O)cc3)n2)n1C(C)C
In short: as §1

[15] = compound: Cn1cc(-c2ccc3c(c2)CCN3C(=O)Cc2cccc(C(F)(F)F)c2)c2c(N)ncnc21
In short: as §1

[16] = compound: Cn1cc(CNCC2CCN(c3ncc(C(=O)NO)cn3)CC2)c2ccccc21 [quisinostat]
In short: as §1

[17] = compound: Cn1cncc1[C@@](N)(c1ccc(Cl)cc1)c1ccc2c(c1)c(-c1cccc(Cl)c1)cc(=O)n2C [tipifarnib]
In short: as §1

[18] = compound: NC(=O)Nc1cc(-c2cccc(F)c2)sc1C(=O)N[C@H]1CCCNC1
In short: as §1

[19] = compound: NC(=O)c1cnc(N[C@@H]2CCCC[C@@H]2N)nc1Nc1cccc(-n2nccn2)c1
In short: as §1

[20] = compound: NC1(c2ccc(-c3nc4ccn5c(=O)[nH]nc5c4cc3-c3ccccc3)cc2)CCC1
In short: as §1

| Target | log2 fold change [1] | log2 fold change [2] | log2 fold change [3] | log2 fold change [4] | log2 fold change [5] | log2 fold change [6] | log2 fold change [7] | log2 fold change [8] | log2 fold change [9] | log2 fold change [10] | log2 fold change [11] | log2 fold change [12] | log2 fold change [13] | log2 fold change [14] | log2 fold change [15] | log2 fold change [16] | log2 fold change [17] | log2 fold change [18] | log2 fold change [19] | log2 fold change [20] |
| --- | --- | --- | --- | --- | --- | --- | --- | --- | --- | --- | --- | --- | --- | --- | --- | --- | --- | --- | --- | --- |
| AKR1C2 (UniProt P52895) | inactive: -0.012 | inactive: -0.022 | inactive: -0.059 | inactive: -0.201 | inactive: 0.049 | active: 0.276 | inactive: 0.014 | inactive: -0.011 | inactive: 0.108 | inactive: 0.18 | inactive: 0.02 | inactive: -0.031 | inactive: -0.006 | inactive: -0.009 | inactive: -0.045 | inactive: -0.043 | inactive: 0 | inactive: 0.019 | inactive: -0.039 | inactive: -0.034 |
| AKR7A2 (UniProt O43488) | inactive: -0.004 | inactive: -0.012 | inactive: 0.054 | inactive: -0.008 | inactive: -0.011 | inactive: -0.032 | inactive: 0.036 | inactive: 0.018 | inactive: -0.002 | inactive: -0.021 | inactive: 0.003 | inactive: -0.003 | inactive: -0.011 | inactive: -0.036 | inactive: 0.002 | inactive: 0.05 | inactive: -0.001 | inactive: -0.007 | inactive: 0.009 | inactive: 0 |
| AHCYL1 (UniProt O43865) | inactive: -0.001 | inactive: 0.008 | inactive: -0.028 | inactive: -0.012 | inactive: 0.043 | inactive: -0.067 | inactive: -0.031 | inactive: 0.013 | inactive: -0.047 | inactive: 0.001 | inactive: -0.077 | inactive: -0.011 | inactive: -0.015 | inactive: 0.021 | inactive: 0.02 | inactive: -0.079 | inactive: -0.001 | inactive: 0.066 | inactive: -0.005 | inactive: -0.087 |
| ADGRE2 (UniProt Q9UHX3) | inactive: -0.074 | inactive: -0.009 | inactive: 0.024 | inactive: 0.025 | inactive: -0.046 | inactive: -0.01 | inactive: -0.01 | inactive: -0.031 | inactive: -0.019 | inactive: -0.006 | inactive: -0.028 | inactive: -0.052 | inactive: 0.059 | inactive: -0.025 | inactive: -0.016 | inactive: -0.044 | inactive: -0.038 | inactive: 0.019 | inactive: 0.008 | inactive: 0.025 |
| AKNA (UniProt Q7Z591) | inactive: 0.016 | inactive: 0.166 | inactive: 0.006 | inactive: 0.171 | inactive: -0.037 | inactive: 0.143 | inactive: 0.138 | inactive: -0.005 | inactive: 0.024 | inactive: 0.156 | inactive: -0.167 | inactive: -0.225 | inactive: -0.08 | inactive: 0.135 | inactive: -0.019 | inactive: -0.064 | inactive: -0.222 | inactive: -0.045 | inactive: -0.064 | inactive: 0 |
| ACTR3B (UniProt Q9P1U1) | inactive: 0.033 | inactive: -0.207 | inactive: 0.003 | inactive: 0.017 | inactive: -0.07 | inactive: -0.005 | inactive: 0.062 | inactive: -0.02 | inactive: 0.014 | inactive: -0.002 | inactive: 0.023 | inactive: 0.15 | inactive: 0.003 | inactive: -0.118 | inactive: 0.051 | inactive: 0 | inactive: 0.021 | inactive: 0.069 | inactive: -0.033 | inactive: -0.041 |
| ACOT7 isoform 7 (UniProt O00154) | inactive: -0.019 | inactive: -0.028 | inactive: 0.017 | inactive: -0.022 | inactive: 0.005 | inactive: 0.01 | inactive: -0.031 | inactive: -0.003 | inactive: 0.006 | inactive: 0.007 | inactive: 0.01 | inactive: 0.009 | inactive: 0.019 | inactive: -0.005 | inactive: -0.005 | inactive: 0.077 | inactive: -0.003 | inactive: -0.032 | inactive: 0.004 | inactive: -0.007 |
| ACSL3 (UniProt O95573) | inactive: 0.026 | inactive: 0.013 | inactive: -0.03 | inactive: -0.049 | inactive: -0.01 | inactive: -0.078 | inactive: 0.082 | inactive: 0.008 | inactive: 0.008 | inactive: 0.051 | inactive: -0.006 | inactive: -0.016 | inactive: -0.034 | inactive: -0.011 | inactive: -0.017 | inactive: -0.002 | inactive: -0.018 | inactive: 0.015 | inactive: -0.052 | inactive: 0.027 |
| AHNAK (UniProt Q09666) | inactive: 0.02 | inactive: 0.001 | inactive: 0.031 | inactive: -0.014 | inactive: -0.014 | inactive: 0.054 | inactive: -0.003 | inactive: -0.007 | inactive: -0.009 | inactive: -0.028 | inactive: 0.031 | inactive: -0.013 | inactive: 0.013 | inactive: 0.023 | inactive: -0.034 | inactive: -0.001 | inactive: -0.008 | inactive: -0.02 | inactive: -0.024 | inactive: 0.018 |
| AGPS (UniProt O00116) | inactive: -0.017 | inactive: -0.049 | inactive: -0.02 | inactive: -0.033 | inactive: -0.011 | inactive: 0.019 | inactive: 0.015 | inactive: 0.025 | inactive: 0.002 | inactive: 0.083 | inactive: -0.014 | inactive: -0.021 | inactive: -0.033 | inactive: 0.05 | inactive: 0.008 | inactive: 0.064 | inactive: -0.015 | inactive: 0.014 | inactive: 0.004 | inactive: 0.003 |
| AGFG1 isoform 4 (UniProt P52594) | inactive: 0 | inactive: -0.084 | inactive: 0.046 | inactive: -0.026 | inactive: -0.01 | inactive: 0.102 | inactive: 0.004 | inactive: 0.032 | inactive: -0.008 | inactive: 0.014 | inactive: 0.005 | inactive: 0.033 | inactive: 0.048 | inactive: 0.01 | inactive: 0.012 | inactive: 0.003 | inactive: -0.03 | inactive: -0.007 | inactive: 0.009 | inactive: 0.003 |
| AK3 (UniProt Q9UIJ7) | inactive: -0.014 | inactive: -0.023 | inactive: 0.043 | inactive: 0.033 | inactive: -0.014 | inactive: -0.039 | inactive: 0.035 | inactive: -0.039 | inactive: 0.004 | inactive: -0.026 | inactive: -0.011 | inactive: -0.012 | inactive: 0.002 | inactive: 0.011 | inactive: 0.002 | inactive: 0.057 | inactive: 0.022 | inactive: -0.014 | inactive: -0.004 | inactive: 0.002 |
| AFG3L2 (UniProt Q9Y4W6) | inactive: -0.035 | inactive: 0.02 | inactive: -0.014 | inactive: 0.067 | inactive: 0.031 | inactive: -0.203 | inactive: 0.049 | inactive: -0.009 | inactive: -0.069 | inactive: -0.048 | inactive: -0.061 | inactive: -0.018 | inactive: -0.059 | inactive: -0.029 | inactive: 0.031 | inactive: 0.059 | inactive: -0.006 | inactive: 0.029 | inactive: 0.008 | inactive: 0.009 |
| ADD3 (UniProt Q9UEY8) | inactive: 0.014 | inactive: 0.034 | inactive: 0.009 | inactive: -0.02 | inactive: -0.001 | inactive: 0.028 | inactive: -0.007 | inactive: 0.011 | inactive: -0.013 | inactive: 0.018 | inactive: -0.002 | inactive: 0.003 | inactive: 0.001 | inactive: 0.004 | inactive: -0.006 | inactive: -0.002 | inactive: -0.029 | inactive: -0.009 | inactive: -0.003 | inactive: 0.01 |
| AKR1A1 (UniProt P14550) | inactive: -0.011 | inactive: -0.003 | inactive: -0.003 | inactive: 0.082 | inactive: -0.014 | inactive: -0.043 | inactive: 0.012 | inactive: -0.001 | inactive: -0.017 | inactive: -0.033 | inactive: 0.013 | inactive: -0.029 | inactive: -0.009 | inactive: 0.019 | inactive: -0.01 | inactive: -0.017 | inactive: 0.021 | inactive: 0.003 | inactive: 0.008 | inactive: 0 |
| AKR1C3 (UniProt P42330) | inactive: -0.03 | inactive: -0.024 | inactive: -0.039 | inactive: -0.014 | inactive: -0.036 | inactive: 0.052 | inactive: -0.003 | inactive: 0.022 | inactive: 0.022 | inactive: -0.026 | inactive: -0.007 | inactive: 0.046 | inactive: 0.209 | inactive: -0.079 | inactive: -0.038 | inactive: -0.055 | inactive: 0.04 | inactive: 0.036 | inactive: -0.059 | inactive: -0.013 |

Look-ups from above:
log2 fold change [5], AGFG1 isoform 4 (UniProt P52594) is entered as inactive: -0.01
log2 fold change [5], AKNA (UniProt Q7Z591) is entered as inactive: -0.037
